Laboratory results as given in patent publication US20030223993.

Chains of the proteins cited; added tags and fusions are not shown. Chains listed by the source or under a name are the forms on record and can include a tag or linker.
SXR:RXR heterodimer (SXR, human PXR ortholog) (Homo sapiens), one chain, as listed by the source: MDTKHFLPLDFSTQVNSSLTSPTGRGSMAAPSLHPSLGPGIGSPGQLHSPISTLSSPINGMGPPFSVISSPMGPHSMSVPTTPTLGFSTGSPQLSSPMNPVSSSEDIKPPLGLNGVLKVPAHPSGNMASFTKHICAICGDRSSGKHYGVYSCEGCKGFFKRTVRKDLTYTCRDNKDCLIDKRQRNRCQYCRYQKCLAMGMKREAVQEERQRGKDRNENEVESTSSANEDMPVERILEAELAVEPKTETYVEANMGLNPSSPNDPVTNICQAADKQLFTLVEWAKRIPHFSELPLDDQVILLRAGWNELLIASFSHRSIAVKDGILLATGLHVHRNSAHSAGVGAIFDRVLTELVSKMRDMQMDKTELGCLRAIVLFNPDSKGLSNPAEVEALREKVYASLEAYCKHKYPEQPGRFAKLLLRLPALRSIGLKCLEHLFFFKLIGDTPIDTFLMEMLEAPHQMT

Assays:
[1] = molecular target: T1, SXR (full-length) (Homo sapiens) (UniProt O75469); test: activity in cells; settings: RIF, protein in cells, variant of CYP3A23 DR-3 element, only the site is given
T1 sequence: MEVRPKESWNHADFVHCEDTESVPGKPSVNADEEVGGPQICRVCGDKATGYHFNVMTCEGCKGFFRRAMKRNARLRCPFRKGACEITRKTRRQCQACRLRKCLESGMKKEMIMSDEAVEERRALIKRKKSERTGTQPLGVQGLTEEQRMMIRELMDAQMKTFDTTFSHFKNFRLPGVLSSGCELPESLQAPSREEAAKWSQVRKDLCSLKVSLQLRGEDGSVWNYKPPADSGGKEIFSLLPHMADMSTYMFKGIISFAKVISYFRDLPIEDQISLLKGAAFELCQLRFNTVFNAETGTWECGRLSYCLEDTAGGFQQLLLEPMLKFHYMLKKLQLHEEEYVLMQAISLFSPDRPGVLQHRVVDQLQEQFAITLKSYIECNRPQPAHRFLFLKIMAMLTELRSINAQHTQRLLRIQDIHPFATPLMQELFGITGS

PXR:RXR heterodimer = test: EMSA; settings: CITED Blumberg et al. 1998; efficient binding; protein translated in vitro
[2] = test system: SXR:RXR heterodimer (SXR, human PXR ortholog) (Homo sapiens); test: EMSA; settings: CITED Blumberg et al. 1998; efficient binding; protein translated in vitro; protein details: initiator Leu converted to Met in SXR construct
[3] = activation by PCN, CTZ abolished

## ACAACTTCATGAACT (double strand) [CYP3A23 DR3/M2]
[1]; [3]
  activity on this sequence: not active

## TGAACTTCAAAGGAGGTCA (double strand) [CYP3A23 DR3/IR6]
[1]; inducibility by PCN, CTZ rescued
  activity on this sequence: active

## TGAACTTCATGAACT (double strand) [CYP3A23 DR-3 element]
PXR:RXR heterodimer
  binding result: binds
[2]
  binding result: binds

## TGTTCTTCATGTTCT (double strand) [CYP3A23 DR3/M1]
[1]; [3]
  activity on this sequence: not active

For at least one entry, the source does not settle the construct or the ends of the probe. For some assays here: No signal at the amounts used counts as a negative. For some assays here: Where a protein sequence is shown, tags need not be part of it.
